Source: the supplement of paper PMC3682954
Several values for one entry are separate records, joined by “and”; a condition that tells them apart may be missing. Equal entries are not always repeated. Structures can show the parent of a compound that is named as a salt. ± gives the standard deviation of the averaged measurements. This is one part of the list. Single values are uncertain, as repeats are few or missing.

Test system: RAW 264.7
Test: cell viability (MTT) relative to vehicle control; higher = more viable cells
Details: stimulus: HMGB1 5 ug/ml, 18 h
[1] = compound concentration: 1 ug/ml

C[C@]12N[C@H](Cc3ccccc31)c1ccccc12 [Dizocilpine maleate]
cell viability (compound concentration: 3 uM): 90.6%

C[N+]1([O-])[C@@H]2C[C@@H](OC(=O)[C@H](CO)c3ccccc3)C[C@H]1[C@@H]1O[C@@H]12 (stereo not given in full) [Scopolamin-N-oxide hydrobromide]
cell viability (compound concentration: 3 uM): 132%

NCCc1ccccn1
cell viability (compound concentration: 3 uM): 97.2%

CCN(CC)C(C)C(=O)c1ccccc1 (stereo not given) [Amfepramone hydrochloride]
cell viability (compound concentration: 3 uM): 96%

O[C@@H]1CCCC[C@H]1N1CCC(c2ccccc2)CC1 [L(-)-vesamicol hydrochloride]
cell viability (compound concentration: 3 uM): 93.4%

O=C1CCCN1CC#CCN1CCCC1 [Oxotremorine sesquifumarate salt]
cell viability (compound concentration: 3 uM): 100%

O=C1CCCN1CC#CCN1CCCC1 [Oxotremorine]
cell viability (compound concentration: 3 uM): 110%

c1cncc([C@@H]2CCCN2)c1 [Nornicotine]
cell viability (compound concentration: 3 uM): 98.4%

CC1(C)C(C=C(Cl)Cl)C1C(=O)OC(C#N)c1cccc(Oc2ccccc2)c1 (stereo not given)
cell viability (compound concentration: 3 uM): 111%

Oc1cc(Cl)ccc1Oc1ccc(Cl)cc1Cl
cell viability (compound concentration: 3 uM): 101%

Oc1cc(Cl)ccc1Oc1ccc(Cl)cc1Cl [Triclosan]
cell viability (compound concentration: 3 uM): 102%

COc1ccc(Cc2nccc3cc(OC)c(OC)cc23)cc1OC
cell viability (compound concentration: 3 uM): 108%

COc1ccc(Cc2nccc3cc(OC)c(OC)cc23)cc1OC [Papaverine hydrochloride]
cell viability (compound concentration: 3 uM): 112 ± 2.7%

NCCCP(=O)(O)O [3-Aminopropylphosphonic acid]
cell viability (compound concentration: 3 uM): 103%

CNCCc1c[nH]c2ccc(O)cc12 [N-omega-Methyl-5-hydroxytryptamine oxalate salt]
cell viability (compound concentration: 3 uM): 108%

CNC1=Nc2ccc(Cl)cc2C(c2ccccc2)=[N+]([O-])C1
cell viability (compound concentration: 3 uM): 103 ± 3.2%

CCC1(CC)C(=O)C=CNC1=O
cell viability (compound concentration: 3 uM): 113%

CCC1(CC)C(=O)C=CNC1=O [Pyrithyldione]
cell viability (compound concentration: 3 uM): 97.9%

COc1cc2c(c(OC)c1OC)-c1ccc(=O)c(O)cc1[C@@H](NC(C)=O)CC2 [Colchiceine]
cell viability [1]: 83.5%

NNC(=O)c1ccc(O)cc1 [4-Hydroxybenzhydrazide]
cell viability (compound concentration: 3 uM): 97.1%

C=C(C)[C@H]1Cc2c(ccc3c2O[C@@H]2COc4cc(OC)c(OC)cc4[C@@H]2C3=O)O1
cell viability (compound concentration: 3 uM): 68.9%

C=C(C)[C@H]1Cc2c(ccc3c2O[C@@H]2COc4cc(OC)c(OC)cc4[C@@H]2C3=O)O1 [Rotenone]
cell viability [1]: 65.5% | cell viability (compound concentration: 3 uM): 98.5%

COC(=O)C1=CCCN(C)C1 [Arecoline hydrobromide]
cell viability (compound concentration: 3 uM): 118 ± 20%

COC(=O)C1=CCCN(C)C1
cell viability (compound concentration: 3 uM): 102%

N[C@@H](CCl)C(=O)O [beta-Chloro-L-alanine hydrochloride]
cell viability (compound concentration: 3 uM): 108%

Fc1ccc(C(OCCN2CCN(CCCc3ccccc3)CC2)c2ccc(F)cc2)cc1
cell viability (compound concentration: 3 uM): 100% and 90.7%

CC(C)(C)NCC(O)c1cc(Cl)c(N)c(Cl)c1 (stereo not given) [Clenbuterol]
cell viability (compound concentration: 3 uM): 103%

CC(C)(C)NCC(O)c1cc(Cl)c(N)c(Cl)c1 (stereo not given) [Clenbuterol hydrochloride]
cell viability (compound concentration: 3 uM): 98.2%

CC(C)(C)NCC(O)c1cc(Cl)c(N)c(Cl)c1 (stereo not given)
cell viability (compound concentration: 3 uM): 111%

COc1cc2c(cc1OC)[C@@]13CCN4CC5=CCO[C@H]6CC(=O)N2[C@H]1[C@H]6[C@H]5C[C@H]43
cell viability (compound concentration: 3 uM): 99.9 ± 7.9%

COc1cc2c(cc1OC)[C@@]13CCN4CC5=CCO[C@H]6CC(=O)N2[C@H]1[C@H]6[C@H]5C[C@H]43 [Brucine]
cell viability (compound concentration: 3 uM): 92.1%

COc1cc2c(cc1OC)[C@H](C)NCC2 [Salsolidine]
cell viability [1]: 95.3%

O=C(NC(=O)c1c(F)cccc1F)Nc1cc(Cl)c(OC(F)(F)C(F)C(F)(F)F)cc1Cl (stereo not given)
cell viability (compound concentration: 3 uM): 107%

NNC(N)=O [Semicarbazide hydrochloride]
cell viability (compound concentration: 3 uM): 118%

O=C[C@H](Cl)[C@@H](O)[C@H](O)[C@H](O)CO [2-Chloro-2-deoxy-D-glucose]
cell viability (compound concentration: 3 uM): 113%

CN(C(=O)Cc1ccc(Cl)c(Cl)c1)C(CN1CCCC1)c1cccc(OCC(=O)O)c1 (stereo not given) [ICI 204,448 hydrochloride]
cell viability (compound concentration: 3 uM): 95.9%

NCCc1ccc(O)cc1 [4-Hydroxyphenethylamine hydrochloride]
cell viability (compound concentration: 3 uM): 115%

CN(C)C(=O)Oc1cc(OC(=O)N(C)C)cc(C(O)CNC(C)(C)C)c1 (stereo not given) [Bambuterol]
cell viability (compound concentration: 3 uM): 106%

CN(C)C(=O)Oc1cc(OC(=O)N(C)C)cc(C(O)CNC(C)(C)C)c1 (stereo not given) [Bambuterol hydrochloride]
cell viability (compound concentration: 3 uM): 87.5%

CN(C)C(=O)Oc1cc(OC(=O)N(C)C)cc(C(O)CNC(C)(C)C)c1 (stereo not given)
cell viability (compound concentration: 3 uM): 111%

CCn1cc(C(=O)O)c(=O)c2cc3c(cc21)OCO3 [Oxolinic acid]
cell viability (compound concentration: 3 uM): 105 ± 3.3%

CCn1cc(C(=O)O)c(=O)c2cc3c(cc21)OCO3
cell viability (compound concentration: 3 uM): 106%

C[N+]1(C)[C@@H]2C[C@@H](OC(=O)[C@H](CO)c3ccccc3)C[C@H]1[C@@H]1O[C@@H]12 [(-)-Scopolamine methyl bromide]
cell viability (compound concentration: 3 uM): 108%

C[N+]1(C)[C@@H]2C[C@@H](OC(=O)[C@H](CO)c3ccccc3)C[C@H]1[C@@H]1O[C@@H]12
cell viability (compound concentration: 3 uM): 111%

C[C@]12CC[C@H](O)C[C@@H]1CC[C@@H]1[C@@H]2CC[C@]2(C)C(=O)CC[C@@H]12 [Epiandrosterone]
cell viability [1]: 102% | cell viability (compound concentration: 3 uM): 121%

C[C@H](Cc1ccc2c(c1)OC(C(=O)O)(C(=O)O)O2)NC[C@H](O)c1cccc(Cl)c1
cell viability (compound concentration: 3 uM): 102%

CCC1(c2ccc(N)cc2)CCC(=O)NC1=O (stereo not given)
cell viability (compound concentration: 3 uM): 100.4 ± 0.86%

CCC1(c2ccc(N)cc2)CCC(=O)NC1=O (stereo not given) [Glutethimide, para-amino]
cell viability (compound concentration: 3 uM): 96.1%

C[N+]1(C)CCN(c2ccccc2)CC1
cell viability (compound concentration: 3 uM): 101%

C[N+]1(C)CCN(c2ccccc2)CC1 [1,1-Dimethyl-4-phenyl-piperazinium iodide]
cell viability (compound concentration: 3 uM): 105%

NC(=O)COc1c(F)cc(SCCNS(=O)(=O)c2ccccc2)cc1F
cell viability (compound concentration: 3 uM): 103%

CCCN1CCC[C@H](c2cccc(O)c2)C1 [R(+)-3PPP hydrochloride]
cell viability (compound concentration: 3 uM): 104%

CCN(C)C(=O)Oc1cccc([C@H](C)N(C)C)c1 [Rivastigmine]
cell viability (compound concentration: 3 uM): 112 ± 6.7%

CC[C@@]1([C@@H]2O[C@@H]([C@H]3O[C@@](O)(CO)[C@H](C)C[C@@H]3C)C[C@@H]2C)CC[C@H]([C@]2(C)CC[C@]3(C[C@H](O)[C@@H](C)[C@@H]([C@@H](C)[C@@H](OC)[C@H](C)C(=O)O)O3)O2)O1 [Monensin sodium salt]
cell viability (compound concentration: 3 uM): 87.5%

C[C@@H]1O[C@@H](O[C@H]2C[C@@H](O)[C@]3(CO)[C@H]4[C@H](O)C[C@]5(C)[C@@H](C6=CC(=O)OC6)CC[C@]5(O)[C@@H]4CC[C@]3(O)C2)[C@H](O)[C@H](O)[C@H]1O [(-)-Ouabain hydrate]
cell viability [1]: 82.4%

C[C@@H]1O[C@@H](O[C@H]2C[C@@H](O)[C@]3(CO)[C@H]4[C@H](O)C[C@]5(C)[C@@H](C6=CC(=O)OC6)CC[C@]5(O)[C@@H]4CC[C@]3(O)C2)[C@H](O)[C@H](O)[C@H]1O
cell viability (compound concentration: 3 uM): 99.8 ± 3.1%

C[C@@H]1O[C@@H](O[C@H]2C[C@@H](O)[C@]3(CO)[C@H]4[C@H](O)C[C@]5(C)[C@@H](C6=CC(=O)OC6)CC[C@]5(O)[C@@H]4CC[C@]3(O)C2)[C@H](O)[C@H](O)[C@H]1O [Ouabain]
cell viability (compound concentration: 3 uM): 105 ± 1.1%

CN1[C@@H]2CC[C@H]1C[C@@H](OC1c3ccccc3CCc3ccccc31)C2 [Deptropine citrate]
cell viability (compound concentration: 3 uM): 83.9%

COc1ccc2c3c([nH]c2c1)C(C)=NCC3 [Harmaline hydrochloride dihydrate]
cell viability [1]: 96.8% | cell viability (compound concentration: 3 uM): 111%

C[C@@H](N)Cc1cnc[nH]1 [Histamine, R(-)-alpha-methyl-, dihydrochloride]
cell viability (compound concentration: 3 uM): 106%

Clc1cc(I)cc(Cl)c1NC1=NCCN1 [p-Iodoclonidine hydrochloride]
cell viability (compound concentration: 3 uM): 97.7%

[N-]=[N+]=CC(=O)OC[C@H](N)C(=O)O
cell viability (compound concentration: 3 uM): 88.3%

C[N+]1([O-])[C@@H]2CC[C@H]1C[C@@H](OC(=O)C(CO)c1ccccc1)C2 (stereo not given in full)
cell viability (compound concentration: 3 uM): 109%

NCC(O)c1ccc(O)cc1 (racemic) [(+,-)-Octopamine hydrochloride]
cell viability (compound concentration: 3 uM): 92.3%

NCC(O)c1ccc(O)cc1 (racemic) [(±)-Octopamine hydrochloride]
cell viability (compound concentration: 3 uM): 106%

C[C@H]1O[C@@H](C[N+](C)(C)C)CS1
cell viability (compound concentration: 3 uM): 105%

CCCN1CCc2cccc3c2[C@H]1Cc1ccc(O)c(O)c1-3 [R(-)-Propylnorapomorphine hydrochloride]
cell viability (compound concentration: 3 uM): 97.7%

Cc1nccc2c1[nH]c1ccccc12 [Harman]
cell viability [1]: 96.6%

Cc1nccc2c1[nH]c1ccccc12 [Harmane hydrochloride]
cell viability (compound concentration: 3 uM): 113%

c1ccc2c(c1)[I+]c1ccccc1-2 [Diphenyleneiodonium chloride]
cell viability (compound concentration: 3 uM): 81.2%

CC(N)Cc1cccc(C(F)(F)F)c1 (single isomer, unassigned; (+)) [(+)-Norfenfluramine hydrochloride]
cell viability (compound concentration: 3 uM): 110%

O=[N+]([O-])c1cc([As](=O)(O)O)ccc1O
cell viability (compound concentration: 3 uM): 100%

O=[N+]([O-])c1cc([As](=O)(O)O)ccc1O [Roxarsone]
cell viability (compound concentration: 3 uM): 118%

CNc1ccc2oc(C[C@H]3O[C@@]4(CC[C@H]3C)O[C@H]([C@H](C)C(=O)c3ccc[nH]3)[C@H](C)C[C@H]4C)nc2c1C(=O)O [Calcimycin]
cell viability (compound concentration: 3 uM): 1.41%

COc1ccc2c(c[n+](C)c3c4cc5c(cc4ccc23)OCO5)c1OC [Chelerythrine chloride]
cell viability (compound concentration: 3 uM): 15.4%

CCN1C[C@]2(COC)[C@H](O)C[C@H](OC)[C@@]34[C@@H]5C[C@@]6(O)[C@H](OC(=O)c7ccccc7)[C@@H]5[C@@](OC(C)=O)([C@@H]([C@H](OC)[C@H]23)[C@@H]14)[C@@H](O)[C@@H]6OC
cell viability (compound concentration: 3 uM): 103%

CCN1C[C@]2(COC)[C@H](O)C[C@H](OC)[C@@]34[C@@H]5C[C@@]6(O)[C@H](OC(=O)c7ccccc7)[C@@H]5[C@@](OC(C)=O)([C@@H]([C@H](OC)[C@H]23)[C@@H]14)[C@@H](O)[C@@H]6OC [Aconitine]
cell viability (compound concentration: 3 uM): 101%
